From ChEMBL document CHEMBL3988442, “University of Dundee, Small-Polar-MMV Screening Library” (2021).

Protein sequences, listed by entry. Tags and fused reporters are not part of them. Residues count along the entry.
UniProt A4I591, 1-473: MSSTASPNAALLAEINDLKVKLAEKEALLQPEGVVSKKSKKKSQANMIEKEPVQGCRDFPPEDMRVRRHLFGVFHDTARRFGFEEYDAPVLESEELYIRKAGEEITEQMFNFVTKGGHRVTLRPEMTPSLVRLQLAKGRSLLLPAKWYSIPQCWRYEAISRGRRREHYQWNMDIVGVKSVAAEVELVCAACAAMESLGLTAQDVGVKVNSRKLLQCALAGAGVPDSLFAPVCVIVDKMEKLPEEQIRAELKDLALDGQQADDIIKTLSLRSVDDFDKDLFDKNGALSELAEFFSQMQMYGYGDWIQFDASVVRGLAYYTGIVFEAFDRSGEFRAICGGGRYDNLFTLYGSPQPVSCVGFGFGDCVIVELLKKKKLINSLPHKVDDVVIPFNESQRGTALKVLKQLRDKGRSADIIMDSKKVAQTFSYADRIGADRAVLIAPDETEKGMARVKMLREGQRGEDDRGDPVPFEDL
UniProt P9WPC5, whole entry: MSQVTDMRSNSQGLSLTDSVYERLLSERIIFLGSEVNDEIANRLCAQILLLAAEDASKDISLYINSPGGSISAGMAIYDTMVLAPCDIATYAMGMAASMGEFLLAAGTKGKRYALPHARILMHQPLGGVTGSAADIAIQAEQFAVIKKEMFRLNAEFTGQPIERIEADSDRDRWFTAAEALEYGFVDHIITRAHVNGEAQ
UniProt P9WPC3, whole entry partner: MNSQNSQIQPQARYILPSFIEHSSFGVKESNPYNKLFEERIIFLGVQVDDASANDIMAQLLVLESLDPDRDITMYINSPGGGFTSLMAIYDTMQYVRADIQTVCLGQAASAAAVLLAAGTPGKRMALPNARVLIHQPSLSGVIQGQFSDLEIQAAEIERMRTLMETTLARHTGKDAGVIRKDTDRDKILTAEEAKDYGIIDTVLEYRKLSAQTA

A: 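Enzyme assay of histidyl-tRNA synthetase; the read-out is not stated. Target: Histidine-tRNA ligase, Leishmania infantum (UniProt A4I591). Concentration: 30 µM. Higher reads as stronger inhibition (inferred: compounds with an IC50 in retests scored well above the rest). The assay is labelled LdHisRS but filed under L. infantum. Of about 69,000 compounds tested this way, about 410 (0.6%) reached 50% or more in at least one test.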
B: 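Assay of Toxoplasma gondii numbers, read through their beta-galactosidase reporter with a colour substrate. Concentration: 10 µM. Higher reads as fewer parasites (inferred from which compounds were picked for retests). About 67,000 compounds were tested under these conditions; 0.38% (about 260) showed 50% or more at least once.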
C: 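Protease assay of ClpP1P2, read by the AMC dye that it sets free. Target: ClpP1P2, Mycobacterium tuberculosis (UniProt P9WPC5 and UniProt P9WPC3). Tested at 50 µM. Direction is inferred from only a few compounds that gave an IC50; most scored high, so higher reads as stronger inhibition. Most other retested compounds had strongly negative values. Size under these conditions: about 69,000 compounds, about 10 of them at 50% or above in at least one test.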
D: 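Whole-parasite assay of Trypanosoma brucei over 72 hours; the read-out is not stated. Concentration: 30 µM. Higher reads as stronger inhibition (inferred: compounds with an IC50 in retests scored well above the rest). Values scatter widely below zero; nearly all retest evidence comes from the higher of the two concentrations used. About 64,000 compounds were tested under these conditions; 1.5% (about 940) showed 50% or more at least once.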
E: 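Cell assay of Leishmania donovani living inside macrophages; the read-out is not stated. Concentration: 30 µM. Higher reads as stronger inhibition (inferred: compounds with an IC50 in retests scored well above the rest). About 69,000 compounds were tested under these conditions; 1.5% (about 1,000) showed 50% or more at least once.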

Values are the deposited “Percent Effect”, in %.
How 0% and 100% were set is not recorded. Most values in the screen are low, and negative values occur.
Compounds were drawn at random from those tested, without regard to their results.
A dash means the value is not listed here; it may have been measured.

| # | Compound | A | B | C | D | E |
|---|---|---|---|---|---|---|
| 1 | `CC(C)C(=O)N1CCOC2(COCCN(c3ncccn3)C2)C1` (stereo unspecified) | 11 | 3.744 | 6.631 | -24.59 | 43.62 |
| 2 | `c1cc(CN2CCC3(CCOCC3COCC3CC3)CC2)ccn1` (stereo unspecified) | 13.59 | - | 0.7274 | - | - |
| 3 | `NC(=O)CN1CCCN(C(=O)Cc2ccc3c(c2)OCO3)CC1` | 12.16 | -0.6303 | -7.2 | -5.68 | -11.4 |
| 4 | `CNC(=O)CNC1CC2(CCN(c3ncccn3)CC2)c2ccccc21` (stereo unspecified) | 10.53 | - | 1.355 | - | - |
| 5 | `CCc1cc(CNC(=O)Nc2cc(F)ccc2N2CCCCC2)on1` | 14.4 | 1.515 | -15.61 | 8.441 | 20.17 |
| 6 | `CSCC(=O)N(C)Cc1ccccc1` | 11.71 | 1.705 | -2.141 | 8.377 | -7.645 |
| 7 | `O=C(Cc1csc(-c2ccc(Cl)cc2)n1)NC(C(=O)O)c1ccccc1` (stereo unspecified) | 9.709 | 2.032 | -7.746 | -27.25 | -28.6 |
| 8 | `NC1CCCCN(Cc2cc(-c3ccccc3OC(F)(F)F)no2)C1` (stereo unspecified) | 18.07 | 18.96 | -20.52 | 101.5 | 99.07 |
| 9 | `Cc1cnn(CC2CN(Cc3nc(N)c4ccccc4n3)CCO2)c1` (stereo unspecified) | -2.667 | -5.611 | 7.31 | -62.66 | -14.33 |
| 10 | `CC(C)Nc1nc2c(cc1C(=O)NCC1CC1)CCN(C)CC2` | 23.29 | - | -118.2 | - | - |
| 11 | `CN(C)C(=O)COC[C@@]12CCC[C@@H]1CN(C1CCCC1)C2` | 8.547 | - | -3.837 | - | - |
| 12 | `O=C1N(c2cccc(Cl)c2)Cc2nc(=O)n(Cc3cccc(F)c3)n21` | 7.767 | -0.7173 | 5.315 | 37.08 | -11.39 |
| 13 | `O=C(Cc1cnn(-c2ccccc2)n1)NC1CCOCC1` | 13.7 | 0.9524 | -5.898 | -16.3 | 4.869 |
| 14 | `CN(C)S(=O)(=O)N1CCOCC1CC(=O)NCCOc1ccccc1` (stereo unspecified) | 11.48 | 16.93 | -3.45 | -60.16 | 2.963 |
| 15 | `CC(C(N)=O)N1CCN(c2ncc(Br)cn2)CC1` (stereo unspecified) | 12.44 | -1.951 | 4.897 | -11.67 | 3.807 |
| 16 | `CCOC1CCCN(C(=O)c2nn(-c3ccccc3F)cc2O)C1` (stereo unspecified) | 10.91 | 10.24 | 2.033 | -12.09 | 5.248 |
| 17 | `CCOCc1ncn2c1CN(C(=O)Nc1ccc(CC)cc1)CC2` | 5.479 | 23.32 | -2.513 | -7.311 | 1.991 |
| 18 | `O=C(O)C(F)(F)F.[H][C@]12CCN(S(=O)(=O)c3ccccc3)C[C@@]1([H])OCCN(C)C2` | - | -20.81 | - | - | -5.795 |
| 19 | `O=C(O)C(F)(F)F.O=C(c1ccsc1)N1CCc2onc(COc3ccccn3)c2C1` | - | 9.863 | - | -37.16 | 9.41 |
| 20 | `CC(=O)N1CCN(c2ncnc3cc4c(cc23)OCCO4)CC1` | 18.97 | 56.5 | -3.436 | 8.56 | 39.4 |
| 21 | `Fc1ccc(-c2nc(CN3CCCCC3Cn3cncn3)co2)cc1` (stereo unspecified) | 17.86 | 3.23 | -21.1 | 11.81 | 24.55 |
| 22 | `NC(=O)NCC1CCCCN1Cc1nc(-c2ccco2)no1` (stereo unspecified) | 11.61 | -0.9916 | -28.41 | -19.02 | 27.21 |
| 23 | `CSCc1ccc(N2CCN(c3ccc(Cl)cn3)CC2)nc1` | 3.279 | 18.59 | 4.77 | -61.26 | 17.22 |
| 24 | `Cc1cc(CN(C)CCC(O)c2ccccc2)no1` (stereo unspecified) | 17.82 | -3.254 | 18.01 | -10.64 | 4.199 |
| 25 | `Cc1n[nH]c(=O)c2c(NC(=O)CN3CCOCC3)oc(C)c12` | 13.21 | 2.469 | -9.799 | -13.06 | 10.23 |
| 26 | `CC(C)(C)c1n[nH]cc1CNCC1CCN(CC(F)(F)F)C1.Cl` (stereo unspecified) | - | 7.901 | - | -7.872 | 23.84 |
| 27 | `Cn1cc(CNC2CCc3c(ccc(=O)n3C)C2)cn1` (stereo unspecified) | 9.901 | -27.71 | -7.755 | 7.237 | 21.18 |
| 28 | `CC(C)N1CCN(C(=O)c2ccc(Cn3ccccc3=O)o2)CC1` | 16.51 | 5.855 | -18.86 | - | 30.81 |
| 29 | `CC(C)C(=O)NC1COC2(CCN(Cc3cccnc3)CC2)C1.O=C(O)C(F)(F)F.O=C(O)C(F)(F)F` (stereo unspecified) | - | -20.53 | - | -4.739 | 10.69 |
| 30 | `O=C(c1cccc(Cn2ccnc2)c1)N1CCCC(n2cccn2)C1` (stereo unspecified) | 10.19 | -29.19 | 9.352 | 2.699 | 21.9 |
| 31 | `CCOc1cc2c(cc1C(=O)O)CCC2` | 10.17 | 2.241 | -13.35 | -7.395 | 20.21 |
| 32 | `Cc1cnc(NS(=O)(=O)c2ccccc2)s1` | 12.36 | 2.651 | 14.69 | -11.29 | 32.86 |
| 33 | `Cc1ncc(CNC(=O)N(CCCO)C2CCc3ccccc32)s1` (stereo unspecified) | 12.5 | -2.055 | -25.4 | 10.63 | 30.2 |
| 34 | `CC(C)Nc1nc(O)cc(C(C)n2ncc3ccccc3c2=O)n1` (stereo unspecified) | 12.95 | -7.405 | -12.71 | 9.896 | -13.36 |
| 35 | `CNC(=O)[C@H]1CO[C@H]2CCN(Cc3ccc4ccccc4n3)C[C@H]2C1` | 10.53 | - | 6.06 | - | - |
| 36 | `Cc1ccc(C(=O)N2CCC3(CCN3c3ncccn3)C2)cn1` (stereo unspecified) | 13.83 | - | 0.9223 | - | - |

The first 4 entries again:

- CC(C)C(=O)N1CCOC2(COCCN(c3ncccn3)C2)C1 (stereo unspecified) | A: 11%; B: 3.744%; C: 6.631%; D: -24.59%; E: 43.62%
- c1cc(CN2CCC3(CCOCC3COCC3CC3)CC2)ccn1 (stereo unspecified) | A: 13.59%; C: 0.7274%
- NC(=O)CN1CCCN(C(=O)Cc2ccc3c(c2)OCO3)CC1 | A: 12.16%; B: -0.6303%; C: -7.2%; D: -5.68%; E: -11.4%
- CNC(=O)CNC1CC2(CCN(c3ncccn3)CC2)c2ccccc21 (stereo unspecified) | A: 10.53%; C: 1.355%